# PubChem BioAssay AID489039 (National Center for Advancing Translational Sciences (NCATS), 2010)
# Where “and” joins values, the source holds several entries; their conditions need not be identical. Identical values can stand only once. The shares of active, inactive and inconclusive entries below differ from those in the screen. Potencies of inconclusive entries are doubtful fits and often do not repeat. Calls of active or inactive are those of the source. Calls follow the shape of the dose curve; as a rule, active = well fitted inhibition curve with a large enough effect; inconclusive = small, poorly fitted or top-dose-only effect, or effect the other way; inactive = no such curve, though single readings can be large or run the other way.
# Molecular target: Nuclear receptor ROR-alpha (Homo sapiens) (UniProt P35398)
# Assay: ROR alpha selectivity assay for inhibitors of ROR gamma transcriptional activity
# Settings: Drosophila S2 Gal4-RORalpha UAS-luciferase, 20 h; activity change, negative = inhibition: at 92.2 µM (top of the series)
# Excerpt: NIH Molecular Libraries Probe Production Network [MLPCN] NIH Chemical Genomics Center [NCGC] MLPCN Grant: R03 DA026211-01 Assay Provider: Dan Littman, New York University Assay Overview: The retinoic acid-related orphan receptor (ROR) gamma is a transcription factor that has a central role in the differentiation of Th17 cells, a subset of T helper cells that secrete the inflammatory cytokines IL-17A, IL-17F, and IL-22. Th17 cells have been implicated in graft versus host disease, autoimmune disease and asthma. RORgamma is induced in naive T helper cells in the presence of TGF-beta combined with IL-6, IL-21, or IL-23, and thereafter directs the expression of the Th17 lineage cytokines. To identify nonselective inhibitors, a Drosophila Schneider cell line was stably transfected with two vectors: a gene expressing a fusion of the Gal4 DNA binding domain and the transactivation domain of the ROR alpha, under the control of the metallothionine promoter and a Photinus luciferase reporter regulated by the Gal4 binding site enhancer, UAS. […] Small molecule inhibitors that inhibit RORgamma and RORalpha, or components common to both, will be active in both assays and thus scored as nonselective.
# Assay Protocol Summary: For screening, 600 cells in 4 uL/well were dispensed into white solid 1536-well plates (Grenier) using a solenoid-based dispenser. Following transfer of 23 nL compound or DMSO vehicle by a pin tool, the plates were incubated 1 hr at ambient temperature, and 1 uL/well copper sulfate (700 uM final concentration) was added. The plates were centrifuged 15 s at 1000 RPM and incubated 20 hr at ambient temperature. After addition of 1.5 uL Photinus luciferase detection reagent, the plates were incubated 10 min at ambient temperature and then read by an ViewLux (Perkin Elmer) to detect luminescence.
Structure (SMILES),Potency,"activity change, negative = inhibition"
CCOc1ncccc1C(=O)OCC(=O)Nc1ccc(-c2nc3ccc(C)cc3s2)cc1,active: 7.24 µM,
COc1cc(O)c(C(CC(=O)N2C[C@H](C)C[C@H](C)C2)c2ccc3c(c2)OCO3)c(OC)c1 (stereo not given in full),"inconclusive: 20.4 µM [activator, full curve, poor fit]",
COc1ccc(C(CC(=O)N2CCCC(C)C2)c2c(O)cc(OC)cc2OC)c(OC)c1 (stereo not given),"inconclusive: 22.9 µM [activator, single point]",
COc1ccccc1C(CC(=O)Nc1ccc(F)cc1)c1ccccc1 (stereo not given),"inconclusive: 72.4 µM [inhibitor, single point]",
COc1cc(O)c(C(CC(=O)N2CCC(Cc3ccccc3)CC2)c2ccc3c(c2)OCO3)c(OC)c1 (stereo not given),"inconclusive: 12.9 µM [activator, full curve, poor fit]",
COc1ccc(C(CC(=O)Nc2ccc(F)cc2)c2ccccc2)cc1 (stereo not given),"inconclusive: 72.4 µM [inhibitor, single point]",
COc1cc(O)c(C(CC(=O)N2CCCC(C)C2)c2ccc(-c3ccccc3)cc2)c(OC)c1 (stereo not given),,inactive: -20.9%
COc1cc(O)c(C(CC(=O)N2CCCC(CN3CCCCC3)C2)c2ccc3c(c2)OCO3)c(OC)c1 (stereo not given),,inactive: -29.6%
COc1cc(O)c(C(CC(=O)N2CCN(c3ccc(F)cc3)CC2)c2ccc3c(c2)OCO3)c(OC)c1 (stereo not given),"inconclusive: 6.45 µM [activator, full curve, poor fit]",
COc1cc(O)c(C(CC(=O)N2CCCC(C(=O)c3ccccc3)C2)c2ccc3c(c2)OCO3)c(OC)c1 (stereo not given),"inconclusive: 0.911 µM [activator, full curve, poor fit]",
COc1ccccc1C(CC(=O)N1CCCCC1)c1ccccc1 (stereo not given),"inconclusive: 36.3 µM [activator, partial curve, poor fit]",
Cc1cccc(C(CC(=O)NCCc2ccccc2)c2ccccc2)c1O (stereo not given),"inconclusive: 16.2 µM [activator, full curve, poor fit]",
CCN(CC)C(=O)CC(c1ccc2c(c1)OCO2)c1c(O)cc(OC)cc1OC (stereo not given),"inconclusive: 28.8 µM [activator, partial curve, poor fit]",
COc1cc(O)c(C(CC(=O)N2CCC(c3ccccc3)CC2)c2ccc3c(c2)OCO3)c(OC)c1 (stereo not given),"inactive and inconclusive: 3.23 µM [activator, full curve]",
Cc1cccc(O)c1C(CC(=O)N1CCCC(C)C1)c1ccc2c(c1)OCO2 (stereo not given),"inconclusive: 72.4 µM [activator, partial curve, poor fit]",
CCOC(=O)Cn1c(CN2CCc3ccccc3C2)nc2c1c(=O)n(C)c(=O)n2C,active: 16.2 µM,
CN1CCN(C(=O)CCN2C(=O)/C(=C/c3ccccc3Cl)SC2=S)CC1,"inconclusive: 72.4 µM [inhibitor, single point]",
COc1cc(O)c(C(CC(=O)Nc2cccc3ccccc23)c2ccc3c(c2)OCO3)c(OC)c1 (stereo not given),,inactive: -14.7%
CC(C)(C)c1ccc(-c2noc(CCC(=O)Nc3cccnc3)n2)cc1,active: 0.0457 µM,
COc1cc(OC)c(C(CC(=O)N2CCCC(C)C2)c2ccc3c(c2)OCO3)c(OC)c1 (stereo not given),"inconclusive: 72.4 µM [inhibitor, single point]",

Structure (SMILES),Potency,"activity change, negative = inhibition"
O=C(CCCOc1ccccc1)Nc1nc2ccccc2[nH]1,active: 14.4 µM,
COc1ccc(OC)c(NC(=S)N(CCc2c(C)[nH]c3ccccc23)Cc2cccs2)c1,"inconclusive: 0.162 µM [inhibitor, full curve, poor fit]",
COc1cc(O)c(C(CC(=O)N2CCc3ccccc32)c2ccc3c(c2)OCO3)c(OC)c1 (stereo not given),"inconclusive: 0.0724 µM [activator, full curve, poor fit]",
COc1cc(O)c(C(CC(=O)N2CCCCC2)c2ccc(C)cc2)c(OC)c1 (stereo not given),"inconclusive: 0.0288 µM [activator, full curve, poor fit]",
COc1cc(O)c(C(CC(=O)N2CCCC(C(C)C)C2)c2ccc3c(c2)OCO3)c(OC)c1 (stereo not given),"inconclusive: 45.7 µM [inhibitor, single point]",
C#CCOc1cc(OC)cc(OC)c1C(CC(=O)N1CCCC(C)C1)c1ccc2c(c1)OCO2 (stereo not given),"inconclusive: 20.4 µM [activator, partial curve]",
COc1cc(O)c(C(CC(=O)N2CCCC(C)C2)c2cccc3ccccc23)c(OC)c1 (stereo not given),"inconclusive: 7.24 µM [activator, full curve, poor fit]",
COc1cccc(O)c1C(CC(=O)N1CCCC(C)C1)c1ccc2c(c1)OCO2 (stereo not given),"inconclusive: 72.4 µM [activator, single point]",
COc1cc(O)c(C(CC(=O)N2CCCC2)c2ccc3c(c2)OCO3)c(OC)c1 (stereo not given),,inactive: -18.2%
COC1CCN(C(=O)c2cc(COc3ccc(-n4cncn4)cc3)on2)CC1,"inconclusive: 57.5 µM [activator, single point]",
COc1cc(O)c(C(CC(=O)N2CCCCCC2)c2ccc3c(c2)OCO3)c(OC)c1 (stereo not given),"inconclusive: 1.29 µM [activator, full curve, poor fit]",
CC(C)(C)c1ccc([S+](=O)([O-])Nc2ccccc2C(O)(C(F)(F)F)C(F)(F)F)cc1,active: 18.2 µM,
COc1cc(OC)c(C(CC(=O)N2CC(C)CC(C)C2)c2ccc3c(c2)OCO3)c(OC)c1 (stereo not given),"inconclusive: 45.7 µM [inhibitor, partial curve, poor fit]",
CCc1ccc(O)c(C(CC(=O)N2CCCC(C)C2)c2ccc3c(c2)OCO3)c1 (stereo not given),"inconclusive: 40.7 µM [activator, partial curve, poor fit]",
Cc1ccc(C)c(/C=N/n2cc(-c3ccccc3)[nH]c2=S)c1,active: 0.911 µM,
Cc1cc(C)c(O)c(C(CC(=O)N2CCCC(C)C2)c2ccc3c(c2)OCO3)c1 (stereo not given),"inconclusive: 22.9 µM [activator, single point]",
COc1cc(O)c(C(CC(=O)N2CCCC(COc3ccc(F)cc3)C2)c2ccc3c(c2)OCO3)c(OC)c1 (stereo not given),,inactive: 16.6%
COc1cc(O)c(C(CC(=O)N2CCCC(CO)C2)c2ccc3c(c2)OCO3)c(OC)c1 (stereo not given),"inconclusive: 72.4 µM [activator, single point]",
COc1cc(O)c(C(CC(=O)N2CCC(c3ccccc3)CC2)c2ccc(OC)c(OC)c2)c(OC)c1 (stereo not given),"inconclusive: 11.5 µM [activator, full curve]",
Cc1ccc(C(CC(=O)N2CCCC(C)C2)c2ccc3c(c2)OCO3)c(O)c1 (stereo not given),"inconclusive: 0.0115 µM [activator, full curve, poor fit]",
